From US20260151494A1
Where a chain is given by its changes, count along the chain named. Results are given in words; binding and its absence hold for the method and conditions named. Some entries that bind do so weakly or less than the wild type.

B1: CD71-binding FN3 domain of SEQ ID NO: 476 (designed binder)
chain: MLPAPKNLVVSRVTEDSARLSWTAPDAAFDSFFIGYLEPQPPGEAIHLQVPGSERSYDLTGLKPGTEYNVTIQGVKGGFPSIPLIAVFTT
B2: CD71-binding FN3 domain of SEQ ID NO: 472 (designed binder)
chain: B1 chain with H47E, Q49Y, I82L, I85V, V87T
B3: CD71-binding FN3 domain of SEQ ID NO: 373 (designed binder)
chain: B1 chain with H47S, Q49F, I82D, I85V, V87S
B4: CD71-binding FN3 domain of SEQ ID NO: 478 (designed binder)
chain: B1 chain with Q49Y, I82V, V87K
B5: CD71-binding FN3 domain of SEQ ID NO: 400 (designed binder)
chain: B1 chain with Q49F, I82G, I85H, V87T
B6: CD71-binding FN3 domain of SEQ ID NO: 447 (designed binder)
chain: B1 chain with H47Y, Q49Y, I82Y, I85T, V87Q
B7: CD71-binding FN3 domain of SEQ ID NO: 465 (designed binder)
chain: B1 chain with H47D, Q49Y, I82E, I85W, V87D
B8: CD71-binding FN3 domain of SEQ ID NO: 473 (designed binder)
chain: B1 chain with H47D, Q49W, I82L, I85S, V87S
B9: CD71-binding FN3 domain of SEQ ID NO: 483 (designed binder)
chain: B1 chain with H47T, Q49V, I82D, I85V, V87S
B10: CD71-binding FN3 domain of SEQ ID NO: 496 (designed binder)
chain: B1 chain with H47I, Q49W, I82V, V87Q
B11: CD71-binding FN3 domain of SEQ ID NO: 508 (designed binder)
chain: B1 chain with H47T, Q49S, I82E, V87I
B12: CD71-binding FN3 domain of SEQ ID NO: 516 (designed binder)
chain: B1 chain with H47S, Q49W, I82S, I85V, V87Y
B13: CD71-binding FN3 domain of SEQ ID NO: 529 (designed binder)
chain: B1 chain with H47D, Q49Y, I82L, I85Q, V87H

What follows are binders tested against human CD71 extracellular domain (CD71-ECD) (human) (UniProt P02786) (assay: capture ELISA: 20 nM antigen on a Neutravidin plate, FN3 domain titrated, chemiluminescence (CL)).
With B1 the binding was “binds”.

These binders were tested against cynomolgus monkey CD71 extracellular domain (CD71-ECD) (cynomolgus monkey) in the same assay as above.
For B2, the binding was “binds”.
With B3 the binding was “binds”.
For B4, the binding was “binds”.
In the case of B5, the binding is reported as “binds”.
B6 was tested, and the binding was “binds”.
With B7 the binding was “binds”.
For B8, the binding was “binds”.
In the case of B1, the binding is reported as “binds”.
In the case of B9, the binding is reported as “binds”.
In the case of B10, the binding is reported as “binds”.
With B11 the binding was “binds”.
B12 was tested, and the binding was “binds”.
With B13 the binding was “binds”.
